{"source": "PubChem BioAssay AID1224826 – NIAID – 2016", "purpose": "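Genes that change LPS-induced Tnf promoter activity in mouse macrophages when knocked down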 (primary screen)", "cell system": "RAW264.7 G9 macrophages from mouse bearing reporters for p65 (GFP) and the Tnf promoter (mCherry)", "knock-down reagent": "siRNA pool against mouse genes, 100 nM", "duration": "16 h of LPS stimulation, after 2 days of siRNA transfection", "treatment": "bacterial lipopolysaccharide (Salmonella minnesota R595), 10 ng/ml", "read-out": "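Imaged Tnf reporter mCherry in nuclei, minus background, normalised per plate to the median and expressed as robust z-scores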", "reading the numbers": "Tnf reporter robust z-score: higher = stronger Tnf promoter reporter signal after LPS", "hit rule": "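Called active when robust z-score is at most -1.3, matching the median of the Tlr4 knock-down control, or over 3; control wells and wells with under 50 cells never active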", "meaning of the calls": "active = Tnf reporter clearly lowered or raised; inactive = no clear change in Tnf reporter", "note": "Shown is one part, drawn at random, of about 17,000 deposited reagents. About 1,110 of all reagents (6.6%) were called active. 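Active means lowered or raised reporter signal; replicate intensities are raw and not normalised per plate.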 Unmarked entries are inactive. Further read-outs or replicates are left out here."}
{"gene knocked down": "Ang (angiogenin, ribonuclease, RNase A family, 5)", "Tnf reporter robust z-score": 0.35, "fewer than 50 cells in well": "enough cells in well"}
{"gene knocked down": "Ankrd44 (ankyrin repeat domain 44)", "Tnf reporter robust z-score": "-1.31 (active)", "fewer than 50 cells in well": "enough cells in well"}
{"gene knocked down": "Ints6l (integrator complex subunit 6 like)", "Tnf reporter robust z-score": 1.57, "fewer than 50 cells in well": "enough cells in well"}
{"gene knocked down": "Mfsd6l (major facilitator superfamily domain containing 6-like)", "Tnf reporter robust z-score": -0.31, "fewer than 50 cells in well": "enough cells in well"}
{"gene knocked down": "Slc2a2", "Tnf reporter robust z-score": -0.32, "fewer than 50 cells in well": "enough cells in well"}
{"gene knocked down": "Haus8 (4HAUS augmin-like complex, subunit 8)", "Tnf reporter robust z-score": 0.41, "fewer than 50 cells in well": "enough cells in well"}
{"gene knocked down": "Uvrag (UV radiation resistance associated gene)", "Tnf reporter robust z-score": -0.26, "fewer than 50 cells in well": "enough cells in well"}
{"gene knocked down": "Trib3 (tribbles pseudokinase 3)", "Tnf reporter robust z-score": -0.56, "fewer than 50 cells in well": "enough cells in well"}
{"gene knocked down": "Ly96 (lymphocyte antigen 96)", "Tnf reporter robust z-score": -1.16, "fewer than 50 cells in well": "enough cells in well"}
{"gene knocked down": "Gper1 (G protein-coupled estrogen receptor 1)", "Tnf reporter robust z-score": 0.54, "fewer than 50 cells in well": "enough cells in well"}
{"gene knocked down": "Smtn (smoothelin)", "Tnf reporter robust z-score": -0.53, "fewer than 50 cells in well": "enough cells in well"}
{"gene knocked down": "Aldh18a1 (aldehyde dehydrogenase 18 family, member A1)", "Tnf reporter robust z-score": -0.19, "fewer than 50 cells in well": "enough cells in well"}
{"gene knocked down": "Crisp3 (cysteine-rich secretory protein 3)", "Tnf reporter robust z-score": 1.98, "fewer than 50 cells in well": "enough cells in well"}
{"gene knocked down": "Tnnc1 (troponin C, cardiac/slow skeletal)", "Tnf reporter robust z-score": -0.5, "fewer than 50 cells in well": "enough cells in well"}
{"gene knocked down": "Pabpn1 (poly(A) binding protein, nuclear 1)", "Tnf reporter robust z-score": "-1.64 (active)", "fewer than 50 cells in well": "enough cells in well"}
{"gene knocked down": "Fbxl22 (F-box and leucine-rich repeat protein 22)", "Tnf reporter robust z-score": "4.24 (active)", "fewer than 50 cells in well": "enough cells in well"}
{"gene knocked down": "Cma2 (chymase 2, mast cell)", "Tnf reporter robust z-score": -0.42, "fewer than 50 cells in well": "enough cells in well"}
{"gene knocked down": "St7l (suppression of tumorigenicity 7-like)", "Tnf reporter robust z-score": -0.13, "fewer than 50 cells in well": "enough cells in well"}
{"gene knocked down": "Polr3f (polymerase (RNA) III (DNA directed) polypeptide F)", "Tnf reporter robust z-score": 1.04, "fewer than 50 cells in well": "enough cells in well"}
{"gene knocked down": "Tpte (transmembrane phosphatase with tensin homology)", "Tnf reporter robust z-score": 0.38, "fewer than 50 cells in well": "enough cells in well"}
{"gene knocked down": "Trerf1 (transcriptional regulating factor 1)", "Tnf reporter robust z-score": -0.59, "fewer than 50 cells in well": "enough cells in well"}
